Data source: PubChem BioAssay AID1259405 (NCATS, 2018)

- Screen: 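Silenced genes that increase secreted GFP made by CHO cells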 (primary screen)
- Cells: Chinese hamster CHO-K1 ovary cells with stable secreted eGFP expression
- Knock-down reagent: single siRNA against mouse genes, 0.8 pmol siRNA per well (2 µl of 400 nM stock)
- Time to read-out: 3 days
- Read-out: 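Per-well intracellular GFP measured by laser scanning cytometry, plus viability from ATP luminescence, each relative to plate median of non-targeting control wells, in %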
- Reading the numbers: GFP, % of control: higher = more GFP per well, higher productivity; viability (ATP), % of control: higher = more viable cells (more ATP)
- Active means: 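Called active when intracellular GFP, relative to negative control, is at or above 120%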
This is one part, drawn at random, of about 50,000 reagents tested. Over the whole deposit, about 4,000 (8%) are marked active. 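Mouse siRNA library applied to hamster cells; one well for each siRNA.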 Entries without a mark were called inactive. The numbers tell different reagents against one gene apart. Reagent sequences are not shown.

target gene	reagent	GFP, % of control	viability (ATP), % of control
Rab2a	1	154 (active)	104
Rab2a	2	108	120
Rab2a	3	49.2	76.6
Rmp24	1	39.4	60.3
Rmp24	2	73.9	103
Rmp24	3	78.9	97.1
Or4d11	1	87.5	90.5
Or4d11	2	148 (active)	95.5
Or4d11	3	57.9	104
Plgrkt	1	139 (active)	96.9
Plgrkt	2	71.9	82.7
Plgrkt	3	88.6	92.9
Gbp8	1	111	59.2
Gbp8	2	104	73.4
Gbp8	3	82.9	76.5
Me2	1	62.4	71
Me2	2	64.8	74.3
Me2	3	85.4	94.5
Zc4h2	1	49.5	56
Zc4h2	2	76.6	65.9
Zc4h2	3	86.3	78.9
Foxl1	1	76.8	106
Foxl1	2	92.6	96.3
Or9g4b	1	101	47.2
Or9g4b	2	99.9	107
Or9g4b	3	75.1	73.6
Krtap9-3	1	70.2	57.9
Krtap9-3	2	83.6	93.2
Krtap9-3	3	80.2	43.1
Srgn	1	107	108
Srgn	2	79.6	62.2
Srgn	3	50.9	63.2
Xcr1	1	26.4	32.1
Xcr1	2	84.5	98.1
Xcr1	3	66.8	70.1
Micall2	1	123 (active)	74.4
Micall2	2	74.4	62.2
Micall2	3	102	95.9
Ctps1	1	150 (active)	151
Ctps1	2	42	50.3
Ctps1	3	60.4	119
Rab30	1	94.4	115
Rab30	2	56.1	42.7
Rab30	3	78.3	83.6
Rars2	1	105	94.3
Rars2	2	78.8	75.6
Zdhhc3	1	74.4	124
Zdhhc3	2	100	81.2
Zdhhc3	3	32.6	15.7
Or7g16	1	67.5	73.7
Or7g16	2	88.2	71.4
Or7g16	3	108	83.8
Emp1	1	69.4	64.1
Emp1	2	75.3	90.3
Emp1	3	50.7	78.5
Lmo4	1	93.1	90.1
Lmo4	2	144 (active)	163

In a second layout: entries from further up.
target gene,reagent,"GFP, % of control","viability (ATP), % of control"
Rab2a,3,49.2,76.6
Rmp24,1,39.4,60.3
Rmp24,2,73.9,103
Rmp24,3,78.9,97.1

Additional reagents:
target gene	reagent	GFP, % of control	viability (ATP), % of control
Dmpk	1	53.9	72.3
Tbxas1	1	86.6	69.5
Tbxas1	2	59.7	71
Tbxas1	3	76.8	60
Wwox	1	58.2	70.9
Wwox	2	65.7	70.2
Wwox	3	71.8	66.7
Uqcc2	1	41	72.4
Uqcc2	2	58.3	67.1
Uqcc2	3	61	52.7
Adamtsl2	1	121 (active)	98.7
Adamtsl2	2	104	87.8
Map2k4	1	68.2	69.6
Acap1	1	189 (active)	151
Acap1	2	95.1	87.7
Acap1	3	61.4	77.6
Tcf7l2	1	69.1	66.6
Tcf7l2	2	65.7	83.5
Npm2	1	67.9	102
Npm2	2	75.2	75.4
Cdc25a	1	88.7	64.9
Cdc25a	2	100	107
Cdc25a	3	75.6	91.9
Sp100	1	60.6	65
Sp100	2	87.2	82.5
Sp100	3	43.5	38.3
Spp2	1	76.8	60.5
Spp2	2	84.5	44.1
Spp2	3	87.1	105
